Results on two substances are retold here after patent US8450271B2 (Northwestern University, priority 2009, dated 2013).

This data set is described as follows: general procedure: Fmoc solid-phase peptide synthesis; Rink amide resin (loading 0.6-0.75 mmole/g); pre-loaded glutamic acid Wang resin for filler PA; HBTU/DIEA. Particulars: whole synthesis, scale of the general procedure 1 mmole; for final HPLC purity: 220 nm.

Consider H3C(CH2)14CO-VVVAAAEEE, for which the “final HPLC purity” value was “approximately 90%” and the difficulty met result was “Valine deletion”.
For “HSNGLPLGGGSEEEAAAVVV(K)-CO(CH2)10CH3 (HSNGLPLGGGSEEEAAAVVVK; dodecanoyl on C-terminal lysine epsilon amine)”, the “final HPLC purity” value was “approximately 90%”.
